Assay results taken from patent US10711242B2, “Apparatus and methods for controlling cellular development” (The Board of Trustees of the Leland Stanford Junior …, priority 2008, dated 2020).
At least one compound was matched to its structure with a doubt left.

System: ChR2-YFP ESCs
Assay: Nestin immunostaining after 5 days of automated optical stimulation of ESCs in differentiation medium with RA
Assay type: cell-based, mouse

Structure (SMILES): CC1=C(/C=C/C(C)=C/C=C/C(C)=C/C(=O)O)C(C)(C)CCC1 [RA, retinoic acid]
- optogenetically-induced change in nestin expression (optically stimulated vs non-stimulated) (1 μM RA, blue light 470 nm, 15 Hz, 10 s every 60 min, 5 days): nonsignificant trend toward higher nestin expression
- optogenetically-induced change in mean nestin expression (optically stimulated vs non-stimulated) (ChR2-YFP ESCs incubated with 2.5 pM RA, blue light 470 nm, 15 Hz, 10 s every 60 min, 5 days, p<0.01, two-tailed t-test): significant optogenetically-induced increase in mean nestin expression
- modulation of neural lineage progression by optogenetic stimulation (in the presence of 2.5 μM RA): could modulate neural lineage progression
